Small differences around the control level are noise.
Assays:
Test in all cases: normalised response (% of control), CellTox Green; higher = less cell death (100 = DMSO, 0 = benzethonium chloride kill control)
Details in all cases: incubation time: 72 h
[1] = system: MDA-MB-436
Protocol: (§1)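 DSRT, 72 h incubation, CellTox Green / CellTiter-Glo readout. Signal is normalised to DMSO and benzethonium chloride controls. Value is the normalised response at the lowest tested concentration.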

[2] = system: BT-474
Protocol: as §1

[3] = system: Hs578T
Protocol: as §1

[4] = system: CAL-148
Protocol: as §1

[5] = system: MFM-223
Protocol: as §1

[6] = system: MDA-MB-468
Protocol: as §1

[7] = system: BT-549
Protocol: as §1

[8] = system: MDA-MB-231
Protocol: as §1

[9] = system: MDA-MB-453
Protocol: as §1

[10] = system: HCC1599
Protocol: as §1

[11] = system: DU-4475
Protocol: as §1

[12] = system: CAL-51
Protocol: as §1

[13] = system: MCF-10A
Protocol: as §1

[14] = system: HCC1143
Protocol: as §1

[15] = system: CAL-120
Protocol: as §1

[16] = system: CAL-85-1
Protocol: as §1

[17] = system: HDQ-P1
Protocol: as §1

[18] = system: HCC1937
Protocol: as §1

Row | Structure (SMILES) | normalised response [1] | normalised response [2] | normalised response [3] | normalised response [4] | normalised response [5] | normalised response [6] | normalised response [7] | normalised response [8] | normalised response [9] | normalised response [10] | normalised response [11] | normalised response [12] | normalised response [13] | normalised response [14] | normalised response [15] | normalised response [16] | normalised response [17] | normalised response [18]
1 | CO[C@H](C(=O)[C@@H](O)[C@@H](C)O)[C@@H]1Cc2cc3cc(O[C@H]4C[C@@H](O[C@@H]5C[C@@H](O)[C@H](O)[C@@H](C)O5)[C@H](O)[C@@H](C)O4)c(C)c(O)c3c(O)c2C(=O)[C@H]1O[C@H]1C[C@@H](O[C@@H]2C[C@@H](O)[C@@H](O[C@@H]3C[C@](C)(O)[C@H](O)[C@@H](C)O3)[C@@H](C)O2)[C@H](O)[C@@H](C)O1 [Plicamycin] (1 nM) | 54.7% | 102% | 106% | 98% | 94.6% | 85.3% | 97.5% | 108% | 109% | 99.2% | 103% | 109% | 103% | 110% | 105% | 98.6% | 99.1% | 57.5%
2 | N#Cc1ccc(C(c2ccc(C#N)cc2)n2cncn2)cc1 [Letrozole] (1 nM) | 101% | 98.6% | 108% | 98.8% | 100% | 98.5% | 92.9% | 103% | 101% | 102% | 103% | 119% | 93% | 106% | 101% | 95.2% | 102% | 69.9%
3 | O=C1NC(=O)[C@@H](c2cn3c4c(cccc24)CCC3)[C@@H]1c1c[nH]c2ccccc12 [Tivantinib] (0.1 nM) | 94.7% | 96.3% | 109% | 103% | 98.7% | 115% | 93.6% | 106% | 111% | 99.8% | 101% | 94.7% | 80.9% | 98.8% | 94.1% | 92.5% | 103% | 76.5%
4 | CN1CCc2c(c3ccccc3n2Cc2ccc(C(=O)NO)cc2)C1 [Tubastatin A] (1 nM) | 74.7% | 93.2% | 101% | 103% | 93.1% | 95.2% | 97.2% | 103% | 105% | 111% | 105% | 110% | 99% | 104% | 99.7% | 101% | 110% | 109%
5 | NC(=O)c1ccc(I)c([N+](=O)[O-])c1 [Iniparib] (1 nM) | 75.8% | 97% | 75.4% | 98.9% | 99% | 75.2% | 111% | 93.8% | 93.9% | 90.3% | 91.8% | 107% | 94.6% | 87.7% | 99.1% | 99.9% | 90.1% | 99.1%

— the supplement of paper PMC4862054
